“Also recorded” adds a separate entry of the source. For at least one compound, name, drawing or mass did not settle the structure.
Tested on: iBAT
Experiment: [18F]F-AraG PET imaging of iBAT in mouse model of multiple sclerosis (cuprizone-EAE)
Type: in vivo

CCCCCCCCc1ccc(CCC(N)(CO)CO)cc1 [fingolimod] was tested, and the “iBAT [18F]F-AraG signal / BAT activation after treatment (in words)” value (MS mouse model, fingolimod treatment) was “no activation of BAT; also recorded: significant decrease in iBAT signal” and the “neuroinflammation after treatment (in words)” value (cuprizone-EAE model) was “reduces neuroinflammation”.
